Reference: the supplement of paper PMC12067093, “Discovery and optimisation of a covalent ligand for TRIM25 and its application to targeted protein ubiquitination” (Chemical Science, 2025)
This is one part of the list.

By UniProt entry, the sequences of proteins in these tests, tags left out. Where a name states a change or a piece, a line headed by the entry shows the natural chain unless it says otherwise.
UniProt P78527, whole entry, looked up: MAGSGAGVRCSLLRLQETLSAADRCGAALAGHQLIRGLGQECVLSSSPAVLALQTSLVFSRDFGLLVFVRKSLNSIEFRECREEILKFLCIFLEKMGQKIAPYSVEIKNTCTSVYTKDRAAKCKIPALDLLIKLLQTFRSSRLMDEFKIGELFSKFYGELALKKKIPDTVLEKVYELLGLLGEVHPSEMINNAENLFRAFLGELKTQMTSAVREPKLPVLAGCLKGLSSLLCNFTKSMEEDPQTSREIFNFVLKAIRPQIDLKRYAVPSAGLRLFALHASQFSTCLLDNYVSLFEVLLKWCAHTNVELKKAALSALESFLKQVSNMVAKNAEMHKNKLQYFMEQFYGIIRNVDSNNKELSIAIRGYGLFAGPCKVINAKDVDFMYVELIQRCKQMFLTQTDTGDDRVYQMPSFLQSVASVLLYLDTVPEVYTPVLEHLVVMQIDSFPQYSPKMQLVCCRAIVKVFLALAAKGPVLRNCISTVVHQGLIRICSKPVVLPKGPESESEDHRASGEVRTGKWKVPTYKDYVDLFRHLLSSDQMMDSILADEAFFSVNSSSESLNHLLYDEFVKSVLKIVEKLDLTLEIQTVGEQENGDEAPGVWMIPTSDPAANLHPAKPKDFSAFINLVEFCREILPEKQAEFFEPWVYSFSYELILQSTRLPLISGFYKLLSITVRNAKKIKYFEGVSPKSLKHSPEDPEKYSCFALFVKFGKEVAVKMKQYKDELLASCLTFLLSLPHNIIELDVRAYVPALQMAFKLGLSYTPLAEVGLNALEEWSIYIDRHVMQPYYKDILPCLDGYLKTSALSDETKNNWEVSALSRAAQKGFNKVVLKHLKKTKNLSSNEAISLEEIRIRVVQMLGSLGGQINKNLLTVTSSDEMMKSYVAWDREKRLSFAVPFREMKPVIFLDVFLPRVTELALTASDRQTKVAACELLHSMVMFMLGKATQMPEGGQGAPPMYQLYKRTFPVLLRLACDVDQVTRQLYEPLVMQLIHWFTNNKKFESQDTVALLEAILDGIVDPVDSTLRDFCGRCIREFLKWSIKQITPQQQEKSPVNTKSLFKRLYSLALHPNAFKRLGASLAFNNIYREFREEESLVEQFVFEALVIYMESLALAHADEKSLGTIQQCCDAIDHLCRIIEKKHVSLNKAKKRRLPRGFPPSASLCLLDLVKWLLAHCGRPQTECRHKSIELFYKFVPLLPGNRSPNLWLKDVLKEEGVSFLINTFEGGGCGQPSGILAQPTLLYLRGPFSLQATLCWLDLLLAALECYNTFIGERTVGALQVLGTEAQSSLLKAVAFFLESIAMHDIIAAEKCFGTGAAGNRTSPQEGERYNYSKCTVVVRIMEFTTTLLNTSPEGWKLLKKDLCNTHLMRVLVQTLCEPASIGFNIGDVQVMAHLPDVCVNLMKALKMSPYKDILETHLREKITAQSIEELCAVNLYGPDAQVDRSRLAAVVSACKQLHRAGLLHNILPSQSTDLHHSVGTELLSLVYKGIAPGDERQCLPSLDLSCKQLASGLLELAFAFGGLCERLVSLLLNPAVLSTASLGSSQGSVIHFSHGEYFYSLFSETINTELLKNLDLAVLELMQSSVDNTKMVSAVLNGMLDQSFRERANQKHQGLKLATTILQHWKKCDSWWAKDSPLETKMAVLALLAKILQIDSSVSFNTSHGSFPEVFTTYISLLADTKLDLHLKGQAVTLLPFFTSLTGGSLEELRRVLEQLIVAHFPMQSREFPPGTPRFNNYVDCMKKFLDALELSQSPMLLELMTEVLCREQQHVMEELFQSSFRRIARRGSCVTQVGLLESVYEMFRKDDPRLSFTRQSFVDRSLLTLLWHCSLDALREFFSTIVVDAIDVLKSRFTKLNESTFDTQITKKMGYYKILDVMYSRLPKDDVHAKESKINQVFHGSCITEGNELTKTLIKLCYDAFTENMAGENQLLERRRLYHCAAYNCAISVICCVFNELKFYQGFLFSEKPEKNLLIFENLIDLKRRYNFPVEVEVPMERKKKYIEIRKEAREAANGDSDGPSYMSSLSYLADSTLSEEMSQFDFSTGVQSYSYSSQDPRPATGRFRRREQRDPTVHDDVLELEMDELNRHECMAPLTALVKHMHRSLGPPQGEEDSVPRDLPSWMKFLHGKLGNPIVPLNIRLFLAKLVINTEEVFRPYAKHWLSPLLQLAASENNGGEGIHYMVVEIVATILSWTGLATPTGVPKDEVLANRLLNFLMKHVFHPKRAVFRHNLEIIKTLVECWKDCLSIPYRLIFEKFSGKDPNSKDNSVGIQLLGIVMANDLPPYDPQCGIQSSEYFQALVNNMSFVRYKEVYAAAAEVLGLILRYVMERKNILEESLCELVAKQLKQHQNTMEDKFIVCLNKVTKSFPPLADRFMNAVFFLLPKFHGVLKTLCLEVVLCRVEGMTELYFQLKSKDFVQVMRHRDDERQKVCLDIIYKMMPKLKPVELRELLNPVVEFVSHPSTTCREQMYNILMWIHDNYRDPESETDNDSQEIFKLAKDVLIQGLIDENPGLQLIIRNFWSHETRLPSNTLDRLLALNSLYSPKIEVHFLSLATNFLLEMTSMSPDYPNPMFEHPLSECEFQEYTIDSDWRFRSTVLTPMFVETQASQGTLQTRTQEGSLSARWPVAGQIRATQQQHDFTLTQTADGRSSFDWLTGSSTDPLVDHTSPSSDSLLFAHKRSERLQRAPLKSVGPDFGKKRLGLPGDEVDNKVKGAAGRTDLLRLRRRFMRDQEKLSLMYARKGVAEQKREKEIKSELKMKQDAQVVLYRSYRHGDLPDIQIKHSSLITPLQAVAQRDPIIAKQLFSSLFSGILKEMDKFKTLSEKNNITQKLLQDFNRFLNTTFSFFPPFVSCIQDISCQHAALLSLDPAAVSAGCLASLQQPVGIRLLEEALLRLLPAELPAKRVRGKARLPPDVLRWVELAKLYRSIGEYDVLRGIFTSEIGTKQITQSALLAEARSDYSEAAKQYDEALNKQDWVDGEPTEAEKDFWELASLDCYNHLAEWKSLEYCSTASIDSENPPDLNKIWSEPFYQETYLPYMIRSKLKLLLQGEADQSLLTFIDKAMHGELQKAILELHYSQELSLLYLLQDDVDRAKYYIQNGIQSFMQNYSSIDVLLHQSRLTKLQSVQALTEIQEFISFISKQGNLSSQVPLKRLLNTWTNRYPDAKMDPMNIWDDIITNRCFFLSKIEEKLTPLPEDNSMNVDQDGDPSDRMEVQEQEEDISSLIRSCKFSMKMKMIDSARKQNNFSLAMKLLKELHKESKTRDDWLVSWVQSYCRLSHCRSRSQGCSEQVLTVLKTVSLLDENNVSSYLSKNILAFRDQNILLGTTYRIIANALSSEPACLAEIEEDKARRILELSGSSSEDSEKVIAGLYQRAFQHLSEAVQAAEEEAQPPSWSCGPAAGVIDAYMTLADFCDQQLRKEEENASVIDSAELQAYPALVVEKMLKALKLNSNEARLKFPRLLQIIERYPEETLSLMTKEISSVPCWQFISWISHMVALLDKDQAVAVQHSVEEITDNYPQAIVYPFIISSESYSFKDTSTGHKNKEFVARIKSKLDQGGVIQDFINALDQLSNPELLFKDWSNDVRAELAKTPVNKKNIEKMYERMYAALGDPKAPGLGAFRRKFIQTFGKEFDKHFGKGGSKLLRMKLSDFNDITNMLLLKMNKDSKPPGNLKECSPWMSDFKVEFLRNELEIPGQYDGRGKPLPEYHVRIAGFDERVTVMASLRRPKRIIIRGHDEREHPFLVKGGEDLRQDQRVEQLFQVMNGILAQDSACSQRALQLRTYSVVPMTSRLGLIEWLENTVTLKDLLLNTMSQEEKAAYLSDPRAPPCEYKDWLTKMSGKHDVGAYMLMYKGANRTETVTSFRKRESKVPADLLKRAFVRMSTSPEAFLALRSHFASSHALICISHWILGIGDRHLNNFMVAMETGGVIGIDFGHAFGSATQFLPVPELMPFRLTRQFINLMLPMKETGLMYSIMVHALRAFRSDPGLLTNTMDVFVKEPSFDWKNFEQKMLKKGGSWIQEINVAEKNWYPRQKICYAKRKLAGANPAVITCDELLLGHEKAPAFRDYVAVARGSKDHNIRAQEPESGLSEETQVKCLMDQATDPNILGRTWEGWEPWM
UniProt P05771, whole entry, looked up: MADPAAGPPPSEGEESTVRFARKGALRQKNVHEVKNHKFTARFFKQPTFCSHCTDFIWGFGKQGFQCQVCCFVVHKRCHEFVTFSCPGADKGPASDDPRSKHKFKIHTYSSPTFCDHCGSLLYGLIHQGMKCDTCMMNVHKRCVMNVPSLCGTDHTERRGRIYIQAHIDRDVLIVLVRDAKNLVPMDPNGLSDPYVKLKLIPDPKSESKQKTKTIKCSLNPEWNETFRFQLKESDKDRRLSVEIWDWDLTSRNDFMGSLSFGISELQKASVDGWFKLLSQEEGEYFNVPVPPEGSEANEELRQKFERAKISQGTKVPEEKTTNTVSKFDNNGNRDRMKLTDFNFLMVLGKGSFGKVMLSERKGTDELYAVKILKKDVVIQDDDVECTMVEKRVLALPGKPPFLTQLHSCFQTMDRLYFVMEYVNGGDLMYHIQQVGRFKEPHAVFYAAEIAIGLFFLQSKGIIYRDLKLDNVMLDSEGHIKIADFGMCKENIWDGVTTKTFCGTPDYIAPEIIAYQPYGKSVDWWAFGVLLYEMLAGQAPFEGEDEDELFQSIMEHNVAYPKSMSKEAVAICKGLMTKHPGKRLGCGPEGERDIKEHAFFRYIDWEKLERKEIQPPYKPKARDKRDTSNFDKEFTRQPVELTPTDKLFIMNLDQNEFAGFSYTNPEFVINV
UniProt Q8WWY3: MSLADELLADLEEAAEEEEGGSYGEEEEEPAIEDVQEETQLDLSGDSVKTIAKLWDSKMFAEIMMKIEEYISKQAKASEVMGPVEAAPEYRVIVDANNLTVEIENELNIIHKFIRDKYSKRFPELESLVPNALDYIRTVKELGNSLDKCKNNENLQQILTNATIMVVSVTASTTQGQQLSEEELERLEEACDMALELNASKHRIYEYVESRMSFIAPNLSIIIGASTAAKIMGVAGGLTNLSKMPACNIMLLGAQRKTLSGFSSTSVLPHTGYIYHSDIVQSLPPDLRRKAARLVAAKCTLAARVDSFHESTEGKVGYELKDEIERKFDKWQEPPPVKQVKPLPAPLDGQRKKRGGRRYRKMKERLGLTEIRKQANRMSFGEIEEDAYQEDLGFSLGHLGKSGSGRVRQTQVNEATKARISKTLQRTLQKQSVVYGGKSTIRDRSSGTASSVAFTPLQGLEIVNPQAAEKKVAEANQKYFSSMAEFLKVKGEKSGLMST
UniProt P79522: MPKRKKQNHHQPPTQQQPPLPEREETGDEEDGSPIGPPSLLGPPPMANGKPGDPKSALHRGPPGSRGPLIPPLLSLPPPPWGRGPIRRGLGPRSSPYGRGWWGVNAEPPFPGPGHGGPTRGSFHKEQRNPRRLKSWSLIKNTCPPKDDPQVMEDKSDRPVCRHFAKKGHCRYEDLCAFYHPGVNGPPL
UniProt Q99873, whole entry, looked up: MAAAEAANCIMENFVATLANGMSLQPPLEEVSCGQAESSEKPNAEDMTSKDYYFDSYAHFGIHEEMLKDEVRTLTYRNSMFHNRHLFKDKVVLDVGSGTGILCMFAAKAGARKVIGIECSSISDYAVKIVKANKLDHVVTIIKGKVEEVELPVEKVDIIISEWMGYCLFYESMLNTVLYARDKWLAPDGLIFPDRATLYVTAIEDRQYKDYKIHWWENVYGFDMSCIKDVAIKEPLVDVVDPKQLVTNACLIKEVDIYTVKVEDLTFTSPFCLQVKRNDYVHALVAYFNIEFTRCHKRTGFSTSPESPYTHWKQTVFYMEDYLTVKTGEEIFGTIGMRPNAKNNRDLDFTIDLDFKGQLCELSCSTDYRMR

What follows are targets tested with CC1Cc2ccccc2N1C(=O)C1CCCN(C1)C(=O)CCl (mixture of isomers) [TRIM25 ligand 11 (diastereomer mixture)] (assay: probe-labelled cysteine peptide fold change vs DMSO (competition) (log2 fold change); higher = less target engagement (more negative = stronger competition)). Conditions: 10 µM; THP-1; incubation time: 4 h.
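Further: competitive chemoproteomic profiling in live THP-1 cells with an iodoacetamide desthiobiotin (IA-DTB) probe, comparing probe-labelled peptide intensities in compound-treated cells against DMSO-treated controls.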

Target	probe-labelled cysteine peptide fold change
PRKDC_P78527_1127+1128_SLGTIQQCCDAIDHLCR (UniProt P78527)	0.269
PRKCA_P17252_86_CHEFVTFSCPGADKGPDTDDPR (UniProt P17252)	0.129
PRKDC_P78527_3281_DDWLVSWVQSYCR (UniProt P78527)	-0.0472
PRKDC_P78527_25_CGAALAGHQLIR (UniProt P78527)	0.318
PRKRA_O75569_163_EYTTICR (UniProt O75569)	0.00258
PRKCB_P05771_143_CVMNVPSLCGTDHTER (UniProt P05771)	0.00113
PRPF31_Q8WWY3_247_MPACNIMLLGAQR (UniProt Q8WWY3)	-0.19
PRKDC_P78527_491_ICSKPVVLPK (UniProt P78527)	0.0423
PRKDC_P78527_232_GLSSLLCNFTK (UniProt P78527)	-0.0882
PRKD2_Q9BZL6_169_CDGCGLNYHK (UniProt Q9BZL6)	-0.0537
PRSS12_P56730_349_CTGNELSIEQCPK (UniProt P56730)	0.0294
PRPF19_Q9UMS4_355_VTDETSGCSLTCAQFHPDGLIFGTGTMDSQIK (UniProt Q9UMS4)	-0.0399
PRMT9_Q6P2P2_683_CLLQSGGK (UniProt Q6P2P2)	0.0456
PRR3_P79522_161_SDRPVCR (UniProt P79522)	0.0127
PRKCSH_P14314_39_GVSLTNHHFYDESKPFTCLDGSATIPFDQVNDDYCDCK (UniProt P14314)	-0.422
PRKDC_P78527_1432_ITAQSIEELCAVNLYGPDAQVDR (UniProt P78527)	-0.284
PRKCB_P05771_70+71_QGFQCQVCCFVVHK (UniProt P05771)	0.161
PRMT1_Q99873_103_VVLDVGSGTGILCMFAAK (UniProt Q99873)	0.0238
PRKCB_P05771_132+135_CDTCMMNVHKR (UniProt P05771)	-0.439

Same assay, conditions: 50 µM; THP-1; incubation time: 4 h

Target	probe-labelled cysteine peptide fold change
PRKDC_P78527_373_GYGLFAGPCK (UniProt P78527)	0.073
PRKRA_O75569_77_VTVGDITCTGEGTSKK (UniProt O75569)	-0.147
PRPF38A_Q8NAV1_158_VCDIILPR (UniProt Q8NAV1)	-0.0773
PRPF4_O43172_399_CIMFLEGHLK (UniProt O43172)	0.125
PRMT1_Q99873_272_VEDLTFTSPFCLQVK (UniProt Q99873)	0.192
PRKDC_P78527_630_DFSAFINLVEFCR (UniProt P78527)	0.0448
PRRC2C_Q9Y520_620_QESENSCNKEEEPVFTR (UniProt Q9Y520)	-0.411
PRKCB_P05771_217_CSLNPEWNETFR (UniProt P05771)	0.0176
PRKRA_O75569_54_NIPVYECER (UniProt O75569)	-0.0232
PRKDC_P78527_2342_KNILEESLCELVAK (UniProt P78527)	0.0649
PRMT1_Q99873_360+364_GQLCELSCSTDYR (UniProt Q99873)	0.191
PRKCB_P05771_143+151_CVMNVPSLCGTDHTER (UniProt P05771)	0.281
PRKDC_P78527_3187_CFFLSK (UniProt P78527)	-0.109
PREX1_Q8TCU6_558_LVDWLLAQGDCQTR (UniProt Q8TCU6)	0.0444
PRKDC_P78527_1742_FNNYVDCMK (UniProt P78527)	0.0251
PREX1_Q8TCU6_52_LCVLNEILGTER (UniProt Q8TCU6)	0.308
PRPF19_Q9UMS4_16_SLICSISNEVPEHPCVSPVSNHVYER (UniProt Q9UMS4)	-0.447
PRKDC_P78527_1127+1128_SLGTIQQCCDAIDHLCR (UniProt P78527)	-0.018

Target	probe-labelled cysteine peptide fold change
PRKCA_P17252_86_CHEFVTFSCPGADKGPDTDDPR (UniProt P17252)	-0.0426
PRKDC_P78527_3281_DDWLVSWVQSYCR (UniProt P78527)	0.0243
PRKDC_P78527_25_CGAALAGHQLIR (UniProt P78527)	0.423
PRKRA_O75569_163_EYTTICR (UniProt O75569)	0.12
PRKCB_P05771_143_CVMNVPSLCGTDHTER (UniProt P05771)	-0.0156
PRPF31_Q8WWY3_247_MPACNIMLLGAQR (UniProt Q8WWY3)	-0.0614
PRKDC_P78527_491_ICSKPVVLPK (UniProt P78527)	0.103
PRKDC_P78527_232_GLSSLLCNFTK (UniProt P78527)	-0.0572
PRKD2_Q9BZL6_169_CDGCGLNYHK (UniProt Q9BZL6)	0.065
PRSS12_P56730_349_CTGNELSIEQCPK (UniProt P56730)	-0.0566
PRPF19_Q9UMS4_355_VTDETSGCSLTCAQFHPDGLIFGTGTMDSQIK (UniProt Q9UMS4)	-0.0705
PRMT9_Q6P2P2_683_CLLQSGGK (UniProt Q6P2P2)	0.107
PRR3_P79522_161_SDRPVCR (UniProt P79522)	-0.141
PRKCSH_P14314_39_GVSLTNHHFYDESKPFTCLDGSATIPFDQVNDDYCDCK (UniProt P14314)	-0.404
PRKDC_P78527_1432_ITAQSIEELCAVNLYGPDAQVDR (UniProt P78527)	-0.156
PRKCB_P05771_70+71_QGFQCQVCCFVVHK (UniProt P05771)	0.246
PRMT1_Q99873_103_VVLDVGSGTGILCMFAAK (UniProt Q99873)	-0.0463
PRKCB_P05771_132+135_CDTCMMNVHKR (UniProt P05771)	-0.327
